One purity is given for all peptides; the source may state it once.

This data set in a line: peptide synthesis. The following applies: whole synthesis, TFA salts; exchanged for acetates prior to receptor binding studies.
Turning to [D-Trp8,L-Dfp11]-SRIF, the “final HPLC purity” value is recorded as 99% and the isolated yield is 67%.
For the substance [L-Dfp6,11,L-Msa7,D-Trp8]-SRIF, the “final HPLC purity” value came out at 99%.
Turning to [L-Dfp6,D-Trp8]-SRIF, the “final HPLC purity” value came to 99% and the isolated yield stood at 43%.
Turning to [L-Dfp7,D-Trp8]-SRIF, the “final HPLC purity” value worked out at 99% and the isolated yield is 53%.

The record behind these values is publication PMC4895178 (Scientific Reports, 2016).
